PubChem BioAssay AID1259424 | University of Nebraska Medical Center | 2018
Aim: 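Find knockdowns that reproduce the expression shifts seen after KSR1 loss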 (primary screen). System: human HCT116 colon cancer cells. Knock-down reagent: siRNA pool against human genes, 50 nM. Measurement: 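Six signature mRNAs by branched-DNA multiplex assay, scaled to two housekeeping genes and non-targeting median, log2; matched to mean KSR1 knockdown profile by Pearson correlation and euclidean distance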. Reading the numbers: mean correlation with KSR1 profile and KSR1 correlation: higher = expression change more like KSR1 knockdown; mean distance from KSR1 profile: higher = expression change less like KSR1 knockdown.
Shown is an unselected part of about 14,000 reagents. 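Higher correlation or smaller distance means closer resemblance to KSR1 loss; control wells, including KSR1 knockdowns, recur on many plates.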 The record does not give: the time to read-out.

mean correlation with KSR1 profile,mean distance from KSR1 profile,"KSR1 correlation, replicate 1","KSR1 correlation, replicate 2","KSR1 correlation, replicate 3",gene symbol,PubChem SID
-0.512,1.66,-0.36,-0.375,-0.614,CA2 (carbonic anhydrase 2),SID363991404
0.0907,3.55,0.0374,0.372,-0.119,DSP (desmoplakin),SID363995397
0.108,1.45,0.291,0.266,-0.081,NPPC (natriuretic peptide C),SID364002814
0.355,1.81,0.261,0.298,0.353,MYOT (myotilin),SID363997558
0.104,3.43,-0.0938,0.232,0.00357,TERT (telomerase reverse transcriptase),SID363994348
0.73,1.24,0.742,0.749,0.726,TAS2R46 (taste 2 receptor member 46),SID364004891
-0.668,2.14,-0.635,-0.615,-0.69,HAO1 (hydroxyacid oxidase 1),SID364000350
0.13,1.44,-0.0414,0.0491,0.271,GOPC (golgi associated PDZ and coiled-coil motif containing),SID364001663
0.81,1.21,0.351,0.784,0.851,CHD6 (chromodomain helicase DNA binding protein 6),SID364003835
0.479,1.58,0.515,0.424,0.0813,TEKT3 (tektin 3),SID364003684
0.426,4.11,0.408,0.306,0.59,FOXA3 (forkhead box A3),SID363995474
0.122,1.84,0.155,0.861,-0.363,EIF2B1 (eukaryotic translation initiation factor 2B subunit alpha),SID363992678
-0.363,2.35,-0.2,-0.145,-0.226,TP53BP1 (tumor protein p53 binding protein 1),SID363996550
-0.617,6.86,-0.216,-0.35,-0.402,TMEM38B (transmembrane protein 38B),SID364000790
-0.487,5.33,-0.297,-0.572,-0.535,CNTN2 (contactin 2),SID363996013
-0.623,1.85,-0.354,-0.322,-0.703,RPRD1A (regulation of nuclear pre-mRNA domain containing 1A),SID364000842
-0.0568,2.94,-0.111,0.0887,-0.00141,KIAA0492 (retired record),SID364005613
-0.579,3.88,-0.45,-0.507,-0.759,WDR91 (WD repeat domain 91),SID363998612
0.209,2.14,0.341,0.108,0.0708,CBX5 (chromobox 5),SID363998065
-0.643,1.74,-0.332,-0.502,-0.75,NUDT3 (nudix hydrolase 3),SID363997483
-0.967,3.95,-0.76,-0.8,-0.83,SLC6A16,SID363998564
0.0304,2.77,0.0107,-0.212,-0.0846,POFUT3 (protein O-fucosyltransferase 3),SID364004117
0.576,1.51,0.439,0.527,0.681,SYT3 (synaptotagmin 3),SID364003884
-0.589,2.8,-0.514,-0.753,-0.512,MMP24 (matrix metallopeptidase 24),SID363997472
-0.00319,1.4,-0.0186,-0.0908,0.037,UBE2B (ubiquitin conjugating enzyme E2 B),SID363994453
-0.504,1.61,-0.665,-0.242,-0.627,GHR (growth hormone receptor),SID363991499
-0.32,3.23,-0.296,-0.427,-0.485,STEAP1 (STEAP family member 1),SID363998325
0.456,1.71,0.353,0.667,0.439,SMOX (spermine oxidase),SID364001337
0.343,2.91,0.474,0.407,0.209,TPM3 (tropomyosin 3),SID364004699
0.195,4.05,0.293,0.367,0.00807,HSPA5 (heat shock protein family A (Hsp70) member 5),SID363996262
0.773,1.79,0.805,0.837,0.663,NPY5R (neuropeptide Y receptor Y5),SID363997001
-0.394,2.15,-0.378,-0.312,-0.413,SERPINB7 (serpin family B member 7),SID363994848
-0.264,4.58,-0.127,-0.152,-0.515,TBC1D17 (TBC1 domain family member 17),SID364002973
-0.861,2.36,-0.202,-0.89,0.141,STK39 (serine/threonine kinase 39),SID363998357

A run of entries of the results above:
mean correlation with KSR1 profile,mean distance from KSR1 profile,"KSR1 correlation, replicate 1","KSR1 correlation, replicate 2","KSR1 correlation, replicate 3",gene symbol,PubChem SID
0.343,2.91,0.474,0.407,0.209,TPM3 (tropomyosin 3),SID364004699
0.195,4.05,0.293,0.367,0.00807,HSPA5 (heat shock protein family A (Hsp70) member 5),SID363996262
0.773,1.79,0.805,0.837,0.663,NPY5R (neuropeptide Y receptor Y5),SID363997001
-0.394,2.15,-0.378,-0.312,-0.413,SERPINB7 (serpin family B member 7),SID363994848
-0.264,4.58,-0.127,-0.152,-0.515,TBC1D17 (TBC1 domain family member 17),SID364002973
